# Measured values published in PubChem BioAssay AID1990 (Broad Institute, 2009).
# Protein sequences, listed by entry. Tags and fused reporters are not part of them.
# UniProt P08659, whole entry, looked up: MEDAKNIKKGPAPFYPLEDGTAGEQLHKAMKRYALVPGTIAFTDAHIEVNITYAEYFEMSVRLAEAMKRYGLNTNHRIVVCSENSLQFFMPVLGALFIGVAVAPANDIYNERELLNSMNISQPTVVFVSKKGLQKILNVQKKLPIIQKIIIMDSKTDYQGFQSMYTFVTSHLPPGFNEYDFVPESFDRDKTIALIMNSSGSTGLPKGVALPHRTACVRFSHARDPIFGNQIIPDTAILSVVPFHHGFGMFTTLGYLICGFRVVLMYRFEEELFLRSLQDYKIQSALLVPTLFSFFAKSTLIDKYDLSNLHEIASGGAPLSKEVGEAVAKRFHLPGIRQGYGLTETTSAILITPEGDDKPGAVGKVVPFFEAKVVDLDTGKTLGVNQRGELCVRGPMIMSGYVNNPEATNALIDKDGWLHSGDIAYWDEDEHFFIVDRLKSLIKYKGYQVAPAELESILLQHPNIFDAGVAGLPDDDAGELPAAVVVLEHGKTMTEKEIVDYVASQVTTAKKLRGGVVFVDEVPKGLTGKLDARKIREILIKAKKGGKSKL
# The median lay at about -60%. The list shows a part of the results. Entries with a potency or affinity are not part of this list. Where no call is shown, the source marks the result inconclusive.
# Target: Luciferin 4-monooxygenase (Photinus pyralis) (UniProt P08659)
# Assay: Photinus pyralis luciferase inhibitors, H4 neuroglioma cells, confirmatory dose response, luminescence (AID 1990)
# Settings: at 12 µM (top of the series) unless noted
row,SMILES,"activity change, negative = inhibition"
1,CN(C)c1ccc(-c2noc(-c3ccccc3O)n2)cc1,-32.7%
2,Cc1csc(NC(=O)C2COc3ccccc3O2)n1 (centres undefined),-9.8%
3,CCCC1=Nc2cc(C(=O)NCCCOCC)ccc2Sc2ccccc21,-46.9%
4,COc1cc(NC(=O)c2cc3ccccc3o2)c(OC)cc1Br,36.6%
5,O=C(N/N=C/c1cccs1)c1n[nH]c2c1CCC2,-24.5%
6,Cc1ccc(Nc2nc(N)c3ccccc3n2)cc1C,-56%
7,CC1CCN(Cc2c(C(=O)N/N=C/c3cc(Br)ccc3O)nnn2-c2nonc2N)CC1,-82.9%
8,COc1ccc(C(=O)NCCC2=CCCCC2)cc1,-54.2%
9,O=C(COc1ccc(CO)cc1Cl)Nc1ccc(F)cc1,-20.3%
10,Cc1ccc2nc(SCC3CCCCO3)[nH]c2c1 (centres undefined),-42.6%
11,O=c1[nH]c(/C=C/c2ccccc2F)nc2ccccc12,-32.4%
12,Cc1cc(C(=O)CSc2cccc[n+]2[O-])c(C)n1-c1ccccc1,19.1%
13,Cc1ccc(-c2cc(C(=O)N3CCCC3)no2)cc1,-58.2%
14,C=CCn1c(C)cc(C(=O)CSc2nc3ccccc3[nH]2)c1C,-60%
15,CCN(CC)CCn1c2ccccc2c2nc3ccc([N+](=O)[O-])cc3cc21,93.8%
16,Cc1ccc2c(c1)sc(=NC(=O)c1cccs1)n2C,-80.1%
17,COc1cccc(C(=O)Cn2c(=N)n(C)c3ccccc32)c1,-71.8%
18,Oc1c(C(Nc2nccs2)c2ccc(C(F)(F)F)cc2)ccc2cccnc12 (centres undefined),-82.5%
19,COc1ccc(/C=C2\SC(=S)N(CCC(=O)NC3C=CS(=O)(=O)C3)C2=O)cc1 (centres undefined),-55.7%
20,Cc1cccc(NC(=O)c2onc3c2CCCC3)n1,-66.5%

row,SMILES,"activity change, negative = inhibition"
1,Cc1ccccc1NC(=O)c1cnc2ccccn2c1=O,-36.1%
2,Cc1ccc(-c2[nH]ncc2/C=C(\C#N)C(=O)NC2CCCCC2)cc1,-47.7%
3,COc1ccc(C(=O)Nc2ccc3[nH]ccc3c2)cc1,-70.4%
4,Oc1c(N=Nc2ccccn2)ccc2ccccc12,8.4%
5,CCOc1ccc(Nc2cc(C)nc(-n3nc(C)cc3C)n2)cc1,-61.8%
6,COc1ccc(-c2cc3nc(CCl)[nH]c(=O)c3s2)cc1,97.8% [at 6 µM]
7,CCNC(=S)NNC(=O)c1cc(-c2ccc(OCC)cc2)nc2ccccc12,-47.2%
8,CC#CC(=O)N1CCC(CCc2ccccc2)(C(=O)OCC)CC1,-47.4%
9,CNC1=C(N(C(C)=O)c2ccc(Br)cc2)C(=O)c2ccccc2C1=O,-95.5%
10,Cc1ccc(CSc2nc3ccncc3[nH]2)cc1,-66.7%
11,Cc1c(C(=O)N/N=C/c2c(O)ccc3ccccc23)nnn1-c1nonc1N,-47.2%
12,CCCCc1ccc(-c2ccc(C)cc2O)nc1,-60.2%
13,CCc1n[nH]c(=S)n1/N=C/c1c(C)nn(-c2ccccc2)c1Cl,-71.3%
14,CCN1CCN(/C=N/c2nc3c(s2)CCCC3)CC1,-52.1%
15,Cn1ccnc1SCc1cn2cc(Br)ccc2n1,-47.6%
16,CCOc1ccc(/C=C2\SC(=S)N(CCCC(=O)NCCCN3CCOCC3)C2=O)cc1,-90.8%
17,O=C(O)c1ccccc1N/N=C\c1ccnc2ccccc12,-65.4%
18,O=C(CCc1nnc(-c2ccc(-c3ccccc3)cc2)o1)NCCc1ccccn1,-73%
19,Cc1ccc(C(=O)CN2C(=O)c3ccccc3S2(=O)=O)cc1,-96.2%
20,N#CC(c1ccc(Cl)cc1)c1ccc2c(C(F)(F)F)cc(C(F)(F)F)nc2n1 (centres undefined),-82.9%

row,SMILES,"activity change, negative = inhibition"
1,CC1(C)CC(N=c2cc(-c3ccccc3)oc3ccc(Cl)cc23)CC(C)(C)N1,-90.5%
2,O=C(Nc1ccccn1)c1onc2c1CCCC2,-70.9%
3,Cc1ccccc1OCC(=O)Nc1cccc(C(=O)O)c1,-26.3% [at 6 µM]
4,CCCCCOC(=O)c1[nH]c2c(c1C)C(=O)CC(c1ccco1)C2 (centres undefined),-55.7%
5,O=C(Nc1nc2c(s1)CCCC2)C1COc2ccccc2O1 (centres undefined),-47.9%
6,CCC(=O)Nc1ccc(NC(=O)c2oc3ccccc3c2C)cc1,-77.1%
7,Cc1cc(NCCCn2ccnc2)n2ncc(-c3ccc(Cl)cc3)c2n1,-51.3%
8,CN(C)c1ccc2nc3ccc(=[N+](C)C)cc-3sc2c1,-22.6%
9,COc1ccc(-n2ncc3c(N(C)C4CCCCC4)ncnc32)cc1,-86.9%
10,c1ccc(-c2cn3c4c(sc3n2)CCCC4)cc1,-76%
11,O=C(CCCOc1ccccc1)N1CCCCC1,-53.7%
12,Cc1ccc(-c2nc(-c3ccccc3)no2)c(Cl)c1,-84.6%
13,O=C(Nc1cccc(O)c1)c1cc(-c2ccc3c(c2)OCO3)on1,-73.5%
14,O=C(NCCc1ccccc1)c1ccc2nccnc2c1,-63.6%
15,C=CCSc1nc2c(cnn2-c2ccccc2)c(=O)n1N,109%
16,Nc1ncnc(N)c1N=Nc1ccccc1,-15.4%
17,CC(C)Oc1ccccc1C1Nc2ccccc2C(=O)N1c1ccc2c(c1)OCCO2 (centres undefined),-65.4%
18,O=C(COc1ccc(/C=N/NC(=O)c2cc3ccccc3o2)cc1Br)Nc1ccccc1,-102%
19,CC(NC(=O)CCc1nnc(-c2ccc(-c3ccccc3)cc2)o1)c1nccs1 (centres undefined),-71.3%

# Filtered by structure, the entries above with fluorine (4)
row,SMILES,"activity change, negative = inhibition"
9,O=C(COc1ccc(CO)cc1Cl)Nc1ccc(F)cc1,-20.3%
11,O=c1[nH]c(/C=C/c2ccccc2F)nc2ccccc12,-32.4%
18,Oc1c(C(Nc2nccs2)c2ccc(C(F)(F)F)cc2)ccc2cccnc12 (centres undefined),-82.5%
20,N#CC(c1ccc(Cl)cc1)c1ccc2c(C(F)(F)F)cc(C(F)(F)F)nc2n1 (centres undefined),-82.9%
